Assays:
[1] = Cortisol levels in human eccrine sweat collected at different times of the day (HPLC-MS/MS); type: in vivo
[2] = ELISA, sweat collected soon after intense exercise, 7:40 am to 22:00 pm; cited from earlier work

**Q.** Which “Average Concentration in human eccrine sweat” value ([1]; collection time 1-1:30 pm) does the source give for `C[C@]12CCC(=O)C=C1CC[C@@H]1[C@@H]2[C@@H](O)C[C@@]2(C)[C@H]1CC[C@]2(O)C(=O)CO` [cortisol, 4-PREGNEN-11β, 17, 21-TRIOL-3, 20-DIONE] here?
**A.** Its value is 1.68 ± 0.49 ng/mL.

**Q.** And the “Average Concentration in human eccrine sweat” value ([1]; collection time 4-4:30 pm)?
**A.** The value was 0.50 ± 0.20 ng/mL.

**Q.** And the average sweat cortisol [2]?
**A.** The average sweat cortisol was 74.62 ± 41.51 ng/mL.

**Q.** What about the “sweat cortisol concentration range” value [2] of the same compound?
**A.** Its value is 8.16 to 141.7 ng/mL.

From US10996205B2, “Stress biomarkers and related non-invasive detection methods” (ARIZONA BOARD OF REGENTS ON BEHALF OF THE UNIVERSITY OF …, priority 2015, dated 2021)
